PubChem BioAssay AID1259314 – Drosophila RNAi Screening Center | 2017
Assay: 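Genes whose knock-down alters cell survival under toxic manganese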 (primary screen). Cells: Drosophila S2R+ cells. Knock-down reagent: long dsRNA against Drosophila genes. Duration: 5 days (4 days knock-down, then 1 day metal exposure). Treatment: manganese chloride added to 15 mM for 24 hours. Read-out: 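Luciferase ATP signal used as a proxy for viable cell number, reported as one averaged z-score per dsRNA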. Reading the numbers: mean ATP z-score: higher = more ATP than the plate average, more viable cells under manganese. Call rule: 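a mean ATP z-score past 1.5 in either direction is called active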. Calls: active = strong ATP change, up or down; inactive = no strong ATP change.
The whole screen tested about 3,100 reagents; shown is an unselected part. 289 of all reagents (9.3%) count as active. 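Active includes both higher and lower ATP than plate average; check the z-score sign for direction.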 Entries without a mark were called inactive. Reagent sequences are not shown. The record does not give: the amount of reagent.

What is on record for MstProx [DRSC12458]?
mean ATP z-score: -0.392

For MstProx [DRSC12601], what does the deposit list?
mean ATP z-score: -0.363

Which result is listed for Or33a [DRSC03386]?
mean ATP z-score: 0.0207

With PIG-Wb [DRSC08526], what does the deposit list?
mean ATP z-score: -0.218

For Shawl [DRSC02209], what does the deposit list?
mean ATP z-score: -0.186

How did the screen score Shawl [DRSC02748]?
mean ATP z-score: -0.938

Which result is listed for Shawl [DRSC24307]?
mean ATP z-score: -0.744

Which result is listed for Amt [DRSC16055]?
mean ATP z-score: 0.049

With Amt [DRSC27970], how do the results read?
mean ATP z-score: 0.625

With Gr39a [DRSC01841], what does the deposit list?
mean ATP z-score: 0.61

With Gr39a [DRSC01842], what does the deposit list?
mean ATP z-score: -0.158

What is on record for Gr39a [DRSC27181]?
mean ATP z-score: 1.18

Which result is listed for ppk28 [DRSC19919]?
mean ATP z-score: 1.19

Which result is listed for ppk28 [DRSC39604]?
mean ATP z-score: -0.846

For Msp300 [DRSC00856], how do the results read?
mean ATP z-score: 1

With Msp300 [DRSC00858], how do the results read?
mean ATP z-score: -0.433

How did the screen score Msp300 [DRSC03369]?
mean ATP z-score: 0.279

With Msp300 [DRSC03370], how do the results read?
mean ATP z-score: 1.13

With CG2003 [DRSC15411], how do the results read?
mean ATP z-score: 0.652

What did the screen give for CG2003 [DRSC39782]?
mean ATP z-score: -0.397

In a second layout: 3 of the entries above
| gene | dsRNA | mean ATP z-score |
| --- | --- | --- |
| Msp300 | DRSC00856 | 1 |
| Msp300 | DRSC00858 | -0.433 |
| Msp300 | DRSC03369 | 0.279 |
